In PubChem BioAssay AID2685 (National Center for Advancing Translational Sciences (NCATS), 2010):
This is one part of the list. The main result of the screen is listed elsewhere. These columns were measured beside it and carry no call. Compounds called inactive in the main read-out are mostly missing here. The note in brackets gives the kind of curve behind each potency; many fits are weak.

Test: qHTS Assay for Lipid Storage Modulators in Drosophila S3 Cells;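 on cell number change: cells counted by Cell Tracker Red CMTPX staining in the red channel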
Conditions: BODIPY lipid droplet fluorescence, 18-24 h; for cell number change: measured here: cell count max response, cells fed with added oleic acid
Outline: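 Laser-scanning cytometry quantifies lipid droplet accumulation (500–530 nm total intensity; droplet/cell object ratio) in oleic acid-fed (400 uM added) Drosophila S3 cells treated with a concentration series. 20 uM Triacsin C defined 100% inhibition.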

[1] = measured here: cell number channel AC50, cells fed with added oleic acid
[2] = measured here: lipid fluorescence (Fed channel) AC50, cells fed with added oleic acid

SMILES | cell number change | AC50 [1] | AC50 [2]
CCc1c(C)nc(N)n2c(SCC(=O)Nc3ccccc3)nnc12 | -22.2% | – | –
COC(=O)CCC(=O)NNC(=O)CCC(=O)Nc1cccc(Cl)c1C | 17.5% | 6.51 µM [rising, partial curve, poor fit] | –
CCCCC(=O)NCCc1ccc(OC)cc1 | 33.3% | – | 0.731 µM [falling, full curve]
O=C(NCc1ccc(Cl)cc1)c1cc(=O)[nH]c2ccc(S(=O)(=O)N3CCOCC3)cc12 | -40.2% | 32.6 µM [falling, single point] | 29.1 µM [falling, single point]
CCOc1cc(/C=N\NC(=O)c2ccc(C)nc2)cc([N+](=O)[O-])c1O | 4.9% | – | 0.92 µM [falling, full curve]
CS(=O)(=O)N(CC(O)Cn1c2ccccc2c2ccccc21)c1cccc2ccccc12 (configuration not stated) | -16% | – | 6.51 µM [rising, single point]
O=C(O)c1ccc(Cl)c(NCc2cccnc2)c1 | 3.81% | – | 1.16 µM [rising, full curve]
O=C(Nc1ccc(S(=O)(=O)N2C[C@@H]3C[C@@H](C2)c2cccc(=O)n2C3)cc1)c1ccc(F)cc1 | 19.5% | – | 0.092 µM [falling, full curve, poor fit]
CC(C)(C)C(CCl)C(=O)NN=C(c1ccccc1)c1ccccc1 (configuration not stated) | 11.2% | – | 29.1 µM [rising, single point]
CCC(CC)NC(=O)c1cc2c(C)nn(Cc3ccccc3Cl)c2s1 | -28.9% | – | 2.06 µM [rising, partial curve]
Cc1ccc(C)c(-c2csc(Nc3ncccn3)n2)c1 | -30.4% | 1.84 µM [falling, full curve] | 0.206 µM [falling, full curve]
CC(=O)c1cccc(NC(=O)c2ccc(NC(=O)CCS(=O)(=O)c3cccs3)cc2)c1 | 54.3% | 23.1 µM [rising, single point] | –
Cc1ccc(C)c(S(=O)(=O)N2CCN(C(=O)c3ccccn3)CC2)c1 | 16.6% | 2.06 µM [rising, single point] | 1.84 µM [rising, full curve]
CCn1c(=S)ccc2ccc(OC)cc21 | -39.4% | 4.61 µM [falling, partial curve, poor fit] | 6.51 µM [falling, partial curve]
CC1CSc2nc3sc4c(c3c(=O)n21)CCCC4 (configuration not stated) | 156% | 13 µM [rising, partial curve] | –
CCN(CC)c1ccc(NC(=O)CN2CCN(CC(=O)Nc3ccc(F)cc3)CC2)cc1 | 3.04% | – | 6.51 µM [falling, single point]
Cc1ccc2cc(-c3noc(C4CCCO4)n3)c(=O)[nH]c2c1 (configuration not stated) | 7.8% | – | 0.058 µM [rising, full curve, poor fit]
c1ccc(N2CCCCC2)c(NC2=NCCC2)c1 | 3.79% | – | 0.13 µM [rising, full curve, poor fit]
CC(=O)Nc1ccc(C(=O)NNC(=O)c2cccc(C)c2)cc1 | 33.3% | – | –
CN(CCC(=O)Nc1ccc(Cl)cc1)Cc1ccccc1 | 6.93% | – | –

Entries of single compounds, looked up by structure.
O=C(O)c1ccc(Cl)c(NCc2cccnc2)c1 in the list: cell number change: 3.81%; AC50 [2]: 1.16 µM [rising, full curve]
CC(=O)c1cccc(NC(=O)c2ccc(NC(=O)CCS(=O)(=O)c3cccs3)cc2)c1 in the list: cell number change: 54.3%; AC50 [1]: 23.1 µM [rising, single point]

The listing continues.

SMILES | cell number change | AC50 [1] | AC50 [2]
COc1ccc(C(=O)Nc2cccc(N(C)S(C)(=O)=O)c2)cc1OC | 0.729% | – | –
c1ccc(-c2nnc(CSc3nc4ccccc4[nH]3)o2)cc1 | 5.06% | – | –
Cc1cc(N2CCN(c3ccccc3)CC2)nc2ccccc12 | 18.6% | – | 29.1 µM [falling, single point]
OCc1nc2ccccc2n1CC(O)COc1ccccc1 (configuration not stated) | -8.51% | – | –
Cc1cc(NC(=O)Nc2cc(C)nn2-c2ccccc2)n(-c2ccccc2)n1 | -43% | 18.4 µM [falling, single point] | –
CCOC(=O)c1cc(NC(=O)CSCCO)ccc1Cl | -24.4% | – | 0.731 µM [rising, partial curve, poor fit]
COc1ccc(C(=O)Nc2ccc(CN3CCOCC3)cc2)cc1Br | 11.6% | – | 0.58 µM [falling, single point]
c1ccc(Nc2nn[nH]n2)cc1 | 0.37% | – | 6.51 µM [falling, single point]
O=[N+]([O-])c1cccnc1SCc1ccccc1 | 19.2% | – | 8.2 µM [rising, partial curve]
CCOc1cc([N+](=O)[O-])cc2c1C(=O)Nc1ccccc1O2 | 4.89% | – | 23.1 µM [falling, single point]
C=CCN1C(=O)CC(C(=O)NC)SC1=Nc1ccc(C(=O)OCC)cc1 (configuration not stated) | 82.5% | 2.91 µM [rising, partial curve] | 1.46 µM [rising, partial curve]
CC(C)c1ccc(NC(=O)COc2nnc(-c3cccs3)c(-c3cccs3)n2)cc1 | 72.7% | 8.2 µM [rising, partial curve] | 3.66 µM [rising, single point]
Cc1cccc(C(=O)NCCc2ccccc2)c1 | 17.5% | – | 0.092 µM [rising, full curve, poor fit]
CC(=O)Nc1nnc(CCS(=O)(=O)c2ccc(Cl)cc2)s1 | -34.6% | 20.6 µM [falling, single point] | –
CCCSc1nc2ccsc2c(=O)n1CC | -33.2% | 0.164 µM [falling, full curve, poor fit] | 18.4 µM [falling, single point]
CCN(CC)C(=O)c1sc(NC(=O)c2c(OC)cccc2OC)c(C#N)c1C | 3.34% | – | 29.1 µM [rising, single point]
CC(C)OCCCNC1=C(Cl)C(=O)c2ccccc2C1=O | -48% | 29.1 µM [falling, single point] | 18.4 µM [falling, single point]
Cc1nc(SCC(=O)NCc2ccco2)c2c(=O)n(C)c(=O)n(CC(C)C)c2n1 | 10.5% | – | –
CC(=O)C1=C(c2ccccc2)NC(=O)NC1c1cccs1 (configuration not stated) | -4% | – | 0.103 µM [rising, full curve]
Cc1cccc(NC(=S)NNC(=O)c2sccc2C)c1 | 35% | 3.26 µM [rising, full curve, poor fit] | 0.259 µM [falling, full curve, poor fit]
